According to patent publication US20160024210A1 (AstraZeneca / MedImmune, published 2016):
These are yes or no findings as the source states them, for the method shown. Some entries that bind do so weakly or less than the wild type. Where a sequence is shown, tags or fusion partners need not be part of it.

What was measured:
[1] = target: T1, human H7CR (B7-H7 counter-receptor) (human, UniProt Q96BF3 23-282); assay: flow cytometry, 10 µg/ml B7-H7mIg on H7CR CHO transfectants, anti-mouse Ig secondary antibody, with Control Ig or an H7CR mAb added [A)-(D]
T1 construct: Used for H7CR on CHO.hH7CR transfectants, human T cells and tonsil tissue; also called B7-H7CR; CD28H
T1 sequence: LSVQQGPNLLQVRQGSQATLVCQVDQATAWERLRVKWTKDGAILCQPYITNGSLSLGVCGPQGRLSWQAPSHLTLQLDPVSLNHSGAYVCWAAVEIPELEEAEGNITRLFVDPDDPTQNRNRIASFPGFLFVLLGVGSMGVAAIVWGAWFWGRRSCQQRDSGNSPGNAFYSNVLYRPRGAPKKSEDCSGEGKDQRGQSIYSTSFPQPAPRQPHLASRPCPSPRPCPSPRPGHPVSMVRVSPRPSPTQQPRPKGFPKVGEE

[2] = target: T1, human H7CR (B7-H7 counter-receptor); assay: flow cytometry, 10 µg/ml B7-H7mIg on H7CR CHO transfectants

binding [1]: binds | binding [2]: binds
B1: B7-H7-murine IgG2a fusion protein (Fc fusion, not shown: a dimerising Fc or GST)
chain: IFPLAFFIYVPMNEQIVIGRLDEDIILPSSFERGSEVVIHWKYQDSYKVHSYYKGSDHLESQDPRYANRTSLFYNEIQNGNASLFFRRVSLLDEGIYTCYVGTAIQVITNKVVLKVGVFLTPVMKYEKRNTNSFLICSVLSVYPRPIITWKMDNTPISENNMEETGSLDSFSINSPLNITGSNSSYECTIENSLLKQTWTGRWTMKDGLHKMQSEHVSLSCQPVNDYFSPNQDFKVTWSRMKSGTFSVLAYYLSSSQNTIINESRFSWNKELINQSDFSMNLMDLNLSDSGEYLCNISSDEYTLLTIHTVHVEPSQETASHN
